Results reported in PubChem BioAssay AID540276 (National Center for Advancing Translational Sciences (NCATS), 2011).
Among all 300,000 compounds or so, about 5,400 (1.8%) were called active. Inconclusive results, whose numbers are uncertain, are shown with a selection of clear calls. Calls follow the shape of the full dose curve; tested in HEK293 cells. A potency beside an inconclusive call is a rough fit, not a confirmed value.

experiment: qHTS for inhibitors of binding or entry into cells for Marburg Virus; conditions: Marburg virus pseudotyped entry inhibition, cell reporter; activity change, negative = inhibition: at 37.8 µM (top of the series) unless noted
% is scaled to controls: 0 for no effect and ±100 for the full control effect; potency is read from the fitted curve at half-maximal effect.

Row | SMILES | Potency | activity change, negative = inhibition
1 | CN1CCN(NC(=O)Nc2cccc(Cl)c2Cl)CC1 | inconclusive: 35.5 µM [activator, single point] | –
2 | O=C(Nc1ccc2oc(-c3ccccc3Cl)nc2c1)c1cncc(Br)c1 | inconclusive: 32.6 µM [inhibitor, single point] | –
3 | Cc1cnc(C(=O)OC(C(=O)Nc2cc(C(F)(F)F)ccc2Cl)c2ccccc2)cn1 (stereo not given) | – | inactive: 14.1%
4 | Cc1cc(-c2ccc(N=Nc3c(S(=O)(=O)O)cc4cc(S(=O)(=O)O)cc(N)c4c3O)c(C)c2)ccc1N=Nc1c(S(=O)(=O)O)cc2cc(S(=O)(=O)O)cc(N)c2c1O | active: 15.8 µM | –
5 | Cc1cc(/C=C(/C#N)c2cccc(Cl)c2)c(C)n1C | inconclusive: 35.5 µM [activator, single point] | –
6 | Cc1cc(C)n(-c2nc(NCCO)c3c4c(sc3n2)CCCC4)n1 | inconclusive: 35.5 µM [inhibitor, single point] | –
7 | O=C(OCc1ccccc1)/C(=C/c1ccccc1Cl)NC(=O)c1ccco1 | inconclusive: 35.5 µM [inhibitor, single point] | –
8 | Oc1ccccc1N1CCN(Cc2ncc(-c3ccccc3)o2)CC1 | inconclusive: 3.16 µM [inhibitor, single point] | –
9 | N#Cc1cc2c(nc1SCc1ccccc1)CCCCC2 | – | inactive: -1.2%
10 | S=C(NCCN(C1CCCCC1)C1CCCC1)Nc1cccc(Cl)c1 | inconclusive: 10 µM [inhibitor, partial curve, poor fit] | –
11 | O=C(c1ccccc1)c1ccccn1 | inconclusive: 6.31 µM [inhibitor, single point] | –
12 | COc1ccc(-c2nnc(-c3ccccc3O)o2)cc1 | inconclusive: 7.08 µM [inhibitor, partial curve, poor fit] | –
13 | CC(=O)N1CCC(N(CCN2CCOCC2)C(=S)Nc2cc(C)cc(C)c2)CC1 | – | inactive: 13.5% [at 46.1 µM]
14 | COc1ccc2c(c1OC)C(=O)OC2Nc1nc(-c2cc3ccccc3oc2=O)cs1 (stereo not given) | inconclusive: 10 µM [inhibitor, partial curve, poor fit] | –
15 | CCc1cccc(CC)c1NC(=O)C1CC(=O)N(c2ccc3c(c2)OCCO3)C1 (stereo not given) | inconclusive: 3.26 µM [activator, single point] | –
16 | O=C(Nc1ccccc1)OCCOc1cccc(Br)c1 | – | inactive: -2.38%
17 | CCC12CN3CC(CC)(CN(C1)C3c1ccc(OCc3ccccc3)cc1)C2=O (stereo not given) | – | inactive: 5.74% [at 46.1 µM]
18 | O=C(O)Cc1ccc(NC(=S)NCc2ccco2)cc1 | inconclusive: 6.31 µM [activator, single point] | –
19 | CC1CN(CC(O)COc2ccc(C(C)C)cc2)CC(C)O1 (stereo not given) | – | inactive: 23.2%
20 | O=C(CCn1c(=O)c2ccccc2n(Cc2cccc([N+](=O)[O-])c2)c1=O)N1CCc2ccccc2C1 | inconclusive: 0.794 µM [activator, single point] | –
21 | S=C(NCCc1ccccc1)N1CCN(Cc2ccccc2)CC1 | – | inactive: 0.301%
22 | COC(=O)Nc1sccc1C(=O)Nc1sccc1C(=O)OC | inconclusive: 16.4 µM [inhibitor, partial curve] | –
23 | Cc1ccc(CNC(=O)CCS(=O)(=O)c2ccc(Cl)cc2)cc1 | inconclusive: 0.316 µM [activator, partial curve, poor fit] | –
24 | COCCN(CCOC)C(=O)CCn1c(=O)oc2ccccc21 | inconclusive: 25.9 µM [activator, partial curve, poor fit] | –

Row | SMILES | Potency | activity change, negative = inhibition
25 | Cc1ccc(C(=O)CSc2nnc(CNc3ccc(F)cc3)o2)cc1 | inconclusive: 35.5 µM [activator, single point] | –
26 | CN(C)S(=O)(=O)c1cccc(NC(=O)CCc2c[nH]c3ccccc23)c1 | inconclusive: 12.6 µM [inhibitor, single point] | –
27 | CCc1cccc(CC)c1NC(=O)CO/N=C(\C)c1cccs1 | – | inactive: 14.7%
28 | Cc1ccccc1OCC(=O)NNC(=O)Cn1[nH]c(=O)c2ccccc2c1=O | inconclusive: 11.2 µM [inhibitor, partial curve, poor fit] | –
29 | Cc1cc(NC(=O)COC(=O)c2c(C)nn(Cc3ccccc3)c2C)no1 | inconclusive: 22.4 µM [inhibitor, single point] | –
30 | Cc1ccc(-c2noc(C3CCN(S(=O)(=O)c4ccc5c(c4)OCCO5)CC3)n2)o1 | inconclusive: 23.1 µM [inhibitor, single point] | –
31 | CN(C)c1ccc(NC(=O)c2ccc3nsnc3c2)cc1 | inconclusive: 0.461 µM [activator, single point] | –
32 | O=S(=O)(c1ccc(F)cc1)N1CCN(CC2CC3C=CC2C3)CC1 (stereo not given) | – | inactive: 20.9% [at 46.1 µM]
33 | COC(=O)C1=C2CCO[C@@H]2[C@H]2[C@@H](C)[C@H](OC)c3ccccc3[C@H]12 | – | inactive: 0.398% [at 14.2 µM]
34 | CCOC(=O)c1[nH]c2ccc(OC)cc2c1NC(=O)c1ccc2c(c1)OCO2 | – | inactive: 0%
35 | CC(=O)CCc1ccc2oc(C(=O)O)c(C)c2c1 | – | inactive: 10.3%
36 | Cc1ccc(NC(=S)N(CCN2CCOCC2)Cc2ccccc2F)cc1Cl | – | inactive: 6.42%
37 | Cc1sc(NC(=O)c2ccco2)c(C(c2ccc(F)cc2)N2CCN(C)CC2)c1C (stereo not given) | active: 6.31 µM | –
38 | COc1cc(OC)cc(C(=O)Nc2ccc3nc(N4CCC(C)CC4)cc(C)c3c2)c1 | inconclusive: 35.5 µM [inhibitor, single point] | –
39 | CCn1c(NC(=O)c2ccc(C)cc2)c2ccccc2nc1=O | inconclusive: 10 µM [inhibitor, partial curve, poor fit] | –
40 | COc1ccc(C2NC(=O)NC(C)=C2C(=O)Nc2cc(C)cc(C)c2)c(OC)c1 (stereo not given) | inconclusive: 1.12 µM [inhibitor, partial curve, poor fit] | –
41 | C=CCNC(=O)N1CCC(c2nc3ccccc3s2)CC1 | inconclusive: 31.6 µM [activator, single point] | –
42 | N#Cc1ccccc1NC(=O)CSc1nnc(-c2ccccc2)n1-c1ccccc1 | inconclusive: 1.12 µM [inhibitor, partial curve, poor fit] | –
43 | CCN(CC)S(=O)(=O)c1ccc(S(=O)(=O)Nc2ccc3c(c2)oc2ccccc23)cc1 | inconclusive: 29.1 µM [inhibitor, single point] | –
44 | CC(=O)Nc1ccc(Nc2cc(C)nc3ccccc23)cc1 | inconclusive: 35.5 µM [inhibitor, single point] | –
45 | COc1ccc(OC)c(/C=N/NC(=O)C(=O)N/N=C/c2cc(OC)ccc2OC)c1 | inconclusive: 5.62 µM [inhibitor, single point] | –
46 | S=C(NCC1CCCCC1)Nc1ccc(Oc2ccccc2)cc1 | inconclusive: 20 µM [inhibitor, single point] | –
47 | COc1ccc(-c2noc(COc3ccc4c(c3)OCO4)n2)cc1 | – | inactive: 15.4%
48 | COc1cc(/C=C(\C#N)C(=O)NCc2cccs2)ccc1O | inconclusive: 0.631 µM [inhibitor, full curve, poor fit] | –

Row | SMILES | Potency | activity change, negative = inhibition
49 | COc1ccccc1OCC(=O)NCC(C)NC(=O)COc1ccccc1OC (stereo not given) | inconclusive: 17.8 µM [activator, single point] | –
50 | Cc1ccc(NC(=O)CN2CCN(Cc3ccccc3)CC2)cc1Cl | inconclusive: 5.01 µM [inhibitor, partial curve] | –
51 | O=C(Nc1ccc2oc(-c3ccc(Cl)c(Cl)c3)nc2c1)c1ncn[nH]1 | inconclusive: 0.631 µM [activator, full curve] | –
52 | O=C(COC(=O)c1ccccc1Br)NCCC1=CCCCC1 | – | inactive: 9.41% [at 46.1 µM]
53 | O=C(CSc1ccc(Cl)cc1)Nc1cccc(-c2nc3ccccc3[nH]2)c1 | inconclusive: 35.5 µM [inhibitor, single point] | –
54 | O=C(Nc1cc(C(F)(F)F)ccc1Cl)c1ccncc1 | – | inactive: -36.8%
55 | O=C1/C(=C/Nc2ccc3c(c2)OCO3)CCc2ccccc21 | inconclusive: 6.31 µM [inhibitor, partial curve, poor fit] | –
56 | COc1ccc(CN(C)C(=O)c2cccc(Oc3ccccc3)c2)c(OC)c1OC | inconclusive: 15.8 µM [inhibitor, single point] | –
57 | C=CCOc1ccc(-c2nc3c(c(=O)[nH]c(=O)n3CCCC)n2C)cc1Br | inconclusive: 15.8 µM [activator, single point] | –
58 | Oc1ccc(-c2csc(-c3cccnc3)n2)cc1O | inconclusive: 16.4 µM [inhibitor, single point] | –
59 | CCOC(=O)c1c(NC(=O)c2ccc(Cl)cc2)csc1C | inconclusive: 0.112 µM [inhibitor, full curve, poor fit] | –
60 | O=C(CCl)N1c2ccccc2Sc2c1ccc1ccccc21 | inconclusive: 35.5 µM [inhibitor, single point] | –
61 | CCC(C(=O)NC1CCCC1)N(C(=O)Cn1nnc(-c2ccc(C)cc2)n1)C1CCCC1 (stereo not given) | inconclusive: 35.5 µM [inhibitor, single point] | –
62 | CCOc1ccccc1C(=O)N1CCN=C1SC | – | inactive: 28.3% [at 46.1 µM]
63 | CN(C)C(=S)NC1(C)CCS(=O)(=O)C1 (stereo not given) | inconclusive: 3.16 µM [activator, single point] | –
64 | Nc1nnc(SCC(=O)Nc2cccc3ccccc23)s1 | – | inactive: 13.6% [at 46.1 µM]
65 | Cc1c(C(N)=O)sc2nc(-c3ccccc3)cn12 | – | inactive: 17.4%
66 | Fc1cccc(CSc2ccc3nnc(-c4ccccn4)n3n2)c1 | – | inactive: 19.5% [at 46.1 µM]
67 | Cc1ccccc1-n1c(=O)n(Cc2ccccc2)c(=O)c2[nH]cnc21 | inconclusive: 35.5 µM [inhibitor, single point] | –
68 | Cc1cc(-c2ccccc2)n2ncc(-c3ccccc3)c2n1 | active: 3.66 µM | –
69 | O=C(c1ccc(S(=O)(=O)N2CCCCCC2)cc1)N(c1ccccn1)C1CCCCC1 | inconclusive: 35.5 µM [inhibitor, partial curve, poor fit] | –
70 | Cc1[nH]nc2nc(SCC(=O)NCC3CCCO3)n(-c3ccc(Br)cc3)c(=N)c12 (stereo not given) | inconclusive: 7.08 µM [inhibitor, full curve, poor fit] | –

Quoted from above, entries 55–57
Row | SMILES | Potency | activity change, negative = inhibition
55 | O=C1/C(=C/Nc2ccc3c(c2)OCO3)CCc2ccccc21 | inconclusive: 6.31 µM [inhibitor, partial curve, poor fit] | –
56 | COc1ccc(CN(C)C(=O)c2cccc(Oc3ccccc3)c2)c(OC)c1OC | inconclusive: 15.8 µM [inhibitor, single point] | –
57 | C=CCOc1ccc(-c2nc3c(c(=O)[nH]c(=O)n3CCCC)n2C)cc1Br | inconclusive: 15.8 µM [activator, single point] | –
